Results: PubChem BioAssay AID853 (Columbia University Molecular Screening Center, 2007)
Among all 47,000 compounds or so, about 200 (0.43%) were called active. This list was built around the results that the source calls inconclusive (neither active nor inactive); the mix of calls is not that of the screen.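 Rule for the calls: active = inhibition of aggregate fluorescence above about 70%, also judged a hit by eye on the cell image (limit read from the data, passing the limit was not always enough); inconclusive = no rule stated for this call; inactive = not judged a hit on image review.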

experiment: clearance of mutant huntingtin inclusions, primary screen, imaging, HeLa Exon1htt(103Q)mCFP, confocal imaging (AID 853); conditions: aggregate imaging, at 1.5 µM, active compounds read high, zero = plate's median compound well;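 note: cells exposed to compound for three days before fixation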

| Compound | inhibition |
| --- | --- |
| COC(=O)CN1C2(C#N)CCCCC2CC2CCCCC21C#N (stereo unspecified) | inactive: 9.2% |
| O=C(NC1CCCCC1)c1nc2c(nnn2Cc2ccccc2Cl)c(=O)[nH]1 | active: 73.7% |
| Cc1cc(C(=O)N2CCN(c3ncccn3)CC2)sc1-c1ccccc1 | inconclusive: 87.7% |
| Clc1ccccc1-c1ccc(/C=N/n2cnnc2)o1 | inconclusive: 79.4% |
| O=C(c1cc2c(=O)oc3ccccc3c2s1)N1CCOCC1 | inactive: 33.3% |
| COc1ccc(CNC(=O)CSc2nnnn2-c2ccc(O)cc2)cc1 | inconclusive: 88% |
| CCC(C)n1c(C)nc2c(c1=O)c1nc3ccccc3nc1n2CCC1=CCCCC1 (stereo unspecified) | inactive: -99.2% |
| Clc1ccccc1-c1cc(COc2ccc3ccccc3c2)no1 | inactive: 11.8% |
| COc1ccccc1C1NC(=O)NC(C)=C1C(C)=O (stereo unspecified) | active: 71.1% |
| CCOc1ccc(-c2nnn(CC(=O)NCc3ccc4c(c3)OCO4)n2)cc1 | active: 75.7% |
| Cc1nn(Cc2ccccc2Cl)c(C)c1NC(=O)c1noc2c1CCCCC2 | inactive: -19.5% |
| c1ccc(-c2csc3ncn4nnnc4c23)cc1 | inactive: 11.2% |
| O=C(CSc1ncnc2c1oc1ccccc12)Nc1ccc2c(c1)OCCO2 | active: 72.7% |
| COc1ccc(OC)c(C(c2nnnn2C2CCCC2)N2CCc3ccccc3C2)c1 (stereo unspecified) | active: 73.4% |
| COCCn1c(=S)[nH]c2ccc(N(C)C)cc2c1=O | inactive: -102% |
| Nc1nn(S(=O)(=O)c2cccc3nsnc23)cc1-c1ccc(Br)cc1 | inconclusive: 72.8% |
| COc1ccccc1N1CCN(C(=O)Cc2cccs2)CC1 | inactive: -11.5% |
| O=C(Nc1cccc(C(F)(F)F)c1)N1CCC(c2nc(-c3ccc(F)cc3)no2)CC1 | inactive: -13.4% |
| CCOC(=O)c1sc2nccc(N(C)C)c2c1N=CNOC | active: 73% |
| COc1ccc(-c2nc(NC(=O)CSc3nnc(C)s3)ns2)cc1 | inconclusive: 76.5% |
| CCOC(=O)c1sc2ncn(/N=C/N(C)C)c(=O)c2c1C | inconclusive: 90.9% |

| Compound | inhibition |
| --- | --- |
| CCn1c(NCc2cc(Br)ccc2NS(=O)(=O)c2ccc(C)cc2)nc2ccccc21 | inactive: -2.3% |
| COC(=O)Cc1[nH]nc2c1C(c1c[nH]c3ccccc13)C(C#N)=C(N)O2 (stereo unspecified) | inactive: 1.3% |
| O=C(NC1CCSC1=O)c1ccccc1 (stereo unspecified) | inconclusive: 90.6% |
| CCn1c(SCC(N)=O)nnc1-c1ccc(OC)c(OC)c1 | inconclusive: 81.2% |
| CCCc1nnc(NC(=O)CCCC(=O)O)s1 | inconclusive: 78.4% |
| CCc1ccccc1-n1c(SCC(=O)N2CCCC2)nnc1-c1ccccn1 | inconclusive: 76% |
| Cn1c(=O)c(=O)n(C)c2cc(S(=O)(=O)CCC(=O)N3CCOCC3)ccc21 | inconclusive: 71.5% |
| COc1ccc(C(=O)N(Cc2nc(-c3ccc(C)cc3)no2)C2CCCCC2)cc1OC | inactive: 56.3% |
| CCc1nnc(NC(=O)C(C)Sc2ccccc2)s1 (stereo unspecified) | inactive: 22.7% |
| CCC(=O)c1ccc(OCC(O)CN2CC(C)OC(C)C2)cc1 (stereo unspecified) | active: 75% |
| O=C(NCc1ccco1)c1ccc(Cn2c(=O)c3ccccc3n(Cc3cccc(F)c3)c2=O)cc1 | inconclusive: 84% |
| O=C(CSc1nc2c([nH]c3ccccc32)c(=O)n1-c1ccc(F)cc1)NCc1ccco1 | inconclusive: 71.8% |
| CCOC(=O)c1sc(NC(=O)CSc2nccc(C)n2)c(C#N)c1C | inactive: 34.6% |
| O=C(NCc1ccc(F)cc1)c1cnn2ccccc12 | active: 75% |
| Cc1ccc(CN2C(=O)CCC2C(=O)NC(C)C)cc1 (stereo unspecified) | inactive: 47.7% |
| O=C(Nc1nnc(C2CCCC2)s1)C1CCC1 | inconclusive: 75.4% |
| CCC12CN(C(=O)c3ccc(OC)cc3)CC(CC)(CN(C(=O)c3ccc(OC)cc3)C1)C2=O | inactive: 18.9% |
| Cc1cc(OC(C)C)nc(NCc2ccccc2)n1 | inconclusive: 71.1% |
| O=C(O)c1ccc(NS(=O)(=O)c2cccc3nsnc23)cc1 | active: 70.5% |
| CCCc1nc2ccc(NC(=O)c3ccco3)cc2c(=O)n1Cc1ccc(Cl)cc1 | inactive: -43.7% |
| CCCC(=O)Nc1nc2nc(-c3ccccc3)cc(=O)n2[nH]1 | inconclusive: 77.8% |

| Compound | inhibition |
| --- | --- |
| CCOC(=O)N1CCC(c2cc(=O)n3[nH]c(C)c(-c4ccc(F)cc4)c3n2)CC1 | active: 81.5% |
| O=C(Cc1cccs1)Nc1nc(-c2ccccc2)cs1 | inconclusive: 89% |
| CCC(C)NC(=O)C1(C)CCC(=O)N1Cc1ccccc1OC (stereo unspecified) | inconclusive: 73.2% |
| CN(C)c1ccc(C2C3=C(CCCC3=O)OC3=C2C(=O)CCC3)cc1 | inactive: -10.4% |
| CC1N=C2c3ccccc3N=C(SCc3cc(=O)n4cc(Cl)ccc4n3)N2C1=O (stereo unspecified) | inactive: -2.9% |
| Cc1nc2c(C(=O)NCc3ccco3)cnn2c(C)c1Cc1ccc(F)cc1Cl | inactive: -24.6% |
| COc1ccc(CCNc2nnc(Sc3nnnn3-c3ccccc3)s2)cc1OC | inactive: 1.2% |
| COc1ccc(CCCC(=O)O)c(C)c1 | inactive: -13% |
| COC(=O)c1ccccc1NC(=O)c1cc(-c2ccc(OC)c(OC)c2)on1 | active: 71% |
| O=C(CN1C(=O)C2C3C=CC(C3)C2C1=O)Nc1nc2ccccc2[nH]1 (stereo unspecified) | inactive: 13.8% |
| CCN(CC)C(=O)CSc1ncnc2c1cnn2-c1ccccc1 | inconclusive: 81.6% |
| Cn1c(=O)[nH]c(=O)c2c1nc(N1CCCCCC1)n2Cc1cccc2ccccc12 | inactive: -42.5% |
| O=C(CSc1n[nH]c(=O)n1C1CC1)Nc1cc(Cl)ccc1Oc1ccccc1 | active: 84.2% |
| CC1(C)Cc2c(cnn2-c2ccccc2)C(=O)/C1=N\NC(=O)c1ccccc1O | inconclusive: 74.1% |
| Cc1cc(C)nc(SCc2ccccc2C#N)n1 | inactive: -3.8% |
| CCCCn1c(SC(C)C(=O)c2ccc(OC)cc2)nc2cc(S(N)(=O)=O)ccc21 (stereo unspecified) | inactive: 24.6% |
| CCOC(=O)c1ccccc1NC(=O)Cn1cnc2c(cnn2-c2ccc(OC)cc2)c1=O | active: 85.6% |
| O=C(CCN1CCOCC1)Nc1ccccc1 | inconclusive: 88.3% |
| Nc1cccc(Cl)c1N1CCOCC1 | inactive: -23.5% |

Of the compounds above, 4 have a cyano group:

| Compound | inhibition |
| --- | --- |
| COC(=O)CN1C2(C#N)CCCCC2CC2CCCCC21C#N (stereo unspecified) | inactive: 9.2% |
| COC(=O)Cc1[nH]nc2c1C(c1c[nH]c3ccccc13)C(C#N)=C(N)O2 (stereo unspecified) | inactive: 1.3% |
| CCOC(=O)c1sc(NC(=O)CSc2nccc(C)n2)c(C#N)c1C | inactive: 34.6% |
| Cc1cc(C)nc(SCc2ccccc2C#N)n1 | inactive: -3.8% |
